Measurements taken from paper PMC10163288.
Some of the results follow.

B1: il2ra_site2_3nfp_sap_17_mot_968ffe68aa11d68c04d2634bf871f227_0001_1_af2_000000211_0001_1_14_H_._HHH_b1_06300_0001_0000300019_0000001_0_0001 (protein)
chain: SSSSSRQEEYIKAVIALIEEAIKAGDPESARSMLEVAKMLAEDARNPELLELLEELEEELNSSSS
B2: il2ra_site1_2b5i_sap_13_mot_0e5a94e4a5addaac739760efb25f0f5d_0001_000000289_0001_18_32_H_._HHH_b1_05950_af2_0001_0000200006_0000001_0_0001_af2pred_0001_af2pred_ … (protein)
chain: SSSSDKDERVFELYREASRLFREGNPEEAREVLEEARELAEQAGNEVAVEDIERLLELLKSSSSS
B3: il2ra_site1_1z92_sap_20_mot_HHH_b1_00368_000000203_0001_23_39_H_._HHH_b1_05006_af2_0001_0000500048_0000001_0_0001_af2pred_0001_af2pred (protein)
chain: KADRRLVKRLLEEGIPPEEIAELLIKDSHDAGLVEQMIKALERKAEELNDPELERVARLLEELIK
B4: il2ra_site2_2erj_sap_20_mot_HHH_b1_05944_000000221_0001_38_56_H_._HHH_b2_03548_af2_0001_0000700027_0000001_0_0001 (protein)
chain: SSSSDEELEQVVEELHEEFNLSEAQKATLEHVLEVAREFGWSEETIERWLRIAAELDKEDSSSSS
B5: il2ra_site1_3nfp_normal_mot_HHH_b2_03420_af2_000000062_0001_42_56_H_._437ce1e4c44253f5d945988760af7e00_0001_af2_0001_0000600030_0000001_1_af2pred_0001_af2pred (protein)
chain: SAKEISRILRRLLQRVPPEVRKLLRRVLELLARGDPEEAEEVLREILELVGDPLVERLLELVEKL
B6: il2ra_site2_2erj_normal_mot_HHH_b2_06512_000000233_0001_19_37_H_._HEEHE_1265_0001_0000200003_0000001_0_af2pred_0001_af2pred (protein)
chain: DDEEAVRLSIELAAEHAGIPSIEVSVSNGEIEVRINGNDRAAKFVSLAAKFVAKALGLTVEVEVE
B7: il2ra_site1_3nfp_normal_mot_HHH_b2_02159_000000237_0001_1_17_H_._ems_3hM_790_af2_0001_0001000025_0000001_1_af2pred_0001_af2pred (protein)
chain: SSDEFLEELVERVEKLAEEKNDEEVKELAEQALRLFREAEEKKDHRASHEAIRIVAKLTLLVKSS
B8: il2ra_site1_2b5i_normal_mot_HHH_b1_01949_af2_000000041_0001_1_19_H_._HHH_b1_07462_af2_0001_0000300029_0000001_0_af2pred_0001_af2pred_1 (protein)
chain: SSSSSDIEELLELFREASELFRRGNPEEARKVLEEAIELAEELGDERALEDLRRFLEMAKSSSSS
B9: il2ra_site1_2b5i_sap_24_mot_352c4fd2a8aa45b61cc0090df3da36e7_0001_1_af2_000000070_0001_36_51_H_._678a1b28e3afbd0e6d42a78f97d9d1d3_0001_0001_0000100009_0000001_0 … (protein)
chain: SSSSDIAALVDAAIAAAEAAKAAGRKREALEILEAAAKAAGEAGDEAAEDRLYELARTIKSSSSS
B10: il2ra_site1_3nfp_normal_mot_44d7d87cef3b3f1636c8b2572508b1bf_0001_1_af2_000000239_0001_37_63_H_._HHH_b1_07852_af2_0001_0000100010_0000001_0 (protein)
chain: SSSSSSLKWLEENAEKAFENNDRHNLRALLKIVRRAIEIVGDPEAREVLKLIEELLERLKSSSSS
B11: il2ra_site2_3nfp_normal_mot_HHH_b1_04762_000000120_0001_42_54_H_._HHH_b1_04139_0001_0000300034_0000001_0 (protein)
chain: SSSSTLERMIELALRALEAAIKQGDEELARLSVEYIKAAILLLGDPELEEEVERLEEELNSSSSS
B12: il2ra_site2_3nfp_sap_25_mot_HHH_b2_02633_000000119_0001_1_18_H_._HHH_b1_07793_0001_0000100007_0000001_0_0001 (protein)
chain: SSSSSDEEVEEEVEELLERAKHIEDPFERFAVLADAMTLAVQNEDPELERLVREVIAKLSSSSSS
B13: il2ra_site1_1z92_sap_14_mot_HHH_b1_08075_000000018_0001_1_20_H_._HHH_b1_02177_0001_0000100015_0000001_0_0001 (protein)
chain: SSSSSSSTAAEYAEEMVELLARKNTEKARRQLEFILRAARLMGDEELEKLIERVLEELSSSSSSS
B14: il2ra_site1_1z92_normal_mot_HHH_b1_03515_000000289_0001_1_19_H_._HHH_b1_01341_af2_0001_0000100013_0000001_0 (protein)
chain: SSSSDQEERAARVIVKVLVRLAGLSEEQEEELRQLAEELVERGVDPLEIIKILDRLAAELGSSSS
B15: il2ra_site1_1z92_sap_20_mot_919c246ba0fc10ef4578bdc7f1052ff8_0001_af2_000000062_0001_37_52_H_._HHH_b1_07585_af2_0001_0000100004_0000001_0_0001 (protein)
chain: SSSDEERAEKNAEAIVRVLVRANRLSEEDEEKLQELAKELVERGVDQLEIIKILDEIAAQISSSS
B16: il2ra_site2_3nfp_sap_27_mot_HHH_b2_03087_000000007_0001_42_55_H_._ems_3hM_77_0001_0000400035_0000001_0_0001 (protein)
chain: SSSSDEEERAEELEEEIEKLLKEGDTYQAAQLIVELAELALKLNDPELVRAVLELYKLLKSSSSS
B17: il2ra_site1_2b5i_sap_30_mot_3e13e3ed3b6e195f81032bb5ce78c6bf_0001_1_af2_000000143_0001_17_32_H_._HHH_b1_06937_0001_0001200019_0000001_0_0001_af2pred_dldesign_0_ … (protein)
chain: SSSSDLRELVEALLAEAEELKAAGDLERAHKLLLLARRVARKADDPELVARVEARRAALGSSSSS
B18: il2ra_site1_1z92_sap_20_mot_2d21eb4e9c52d37fc3f75ebf2decd015_0001_1_af2_000000088_0001_37_51_H_._072deba08d558e8adcb5b16438222d5b_0001_0001_0000100007_0000001_0 … (protein)
chain: DHVAEQLREAVEKNDEELLREFIKIALEDAGDPRLVKQFLKDLVKRLGLPPEVLERLEELLEELT
B19: il2ra_site1_1z92_normal_mot_HHH_b1_02970_000000195_0001_43_56_H_._HHH_b1_05309_af2_0001_0000300028_0000001_0 (protein)
chain: SSSSSSDEDVERIMELFREAARIRDREEVRKLLEEALRLAEELGDEELRRDVEEYLRLLSSSSSS
B20: il2ra_site2_2erj_sap_19_mot_HHH_b1_02771_000000207_0001_1_20_H_._HHH_b1_04616_0001_0000400001_0000001_0_0001 (protein)
chain: SSSDMRRLYELLVRILRALAEGDPELAEELIEEARELIEELNSDTAREMLENLERLLEELRSSSS
B21: il2ra_site1_2b5i_normal_mot_22370d59370c406a0c205a431f537cfa_0001_af2_000000141_0001_1_31_H_._HHH_b1_02999_af2_0003_0000300026_0000001_0_af2pred_dldesign_0_af2p … (protein)
chain: SSSSKETAAAAAAIVEELEEKYGLTEEQYAALSRKAVELVWKGYSPEEIREILEAEAKKLSSSSS
B22: il2ra_site2_3nfp_normal_mot_HHH_b1_04537_af2_000000077_0001_1_18_H_._HHH_b2_05586_0001_0000500015_0000001_0 (protein)
chain: SSSSDREEAAQLLSEAFQLLQEGDPHEAEKLLEEAREIAEEAGDEQLLQAIEWALAAVKLYSSSS
B23: il2ra_site1_2b5i_sap_16_mot_HHH_b2_04373_af2_000000166_0001_1_14_H_._HHH_b1_00078_0001_0000500025_0000001_0_0001_af2pred_dldesign_0_af2pred (protein)
chain: SSSSSAARLARELFTKADEAYKAGEKEKAKELLEEALKIAEKNKMNTFIKIIKWALEEIKSSSSS
B24: il2ra_site1_1z92_normal_mot_HHH_b2_07758_000000290_0001_1_17_H_._HHH_b2_02649_0001_0000100014_0000001_0_af2pred_dldesign_0_af2pred (protein)
chain: SSSSSSGIDKAVRIAVEAAGLSAEDEERLRAEAKERLAKGMKKSDIYKWLNREASALAEKSSSSS

The binders below were run against il2ra, P01589 (assay: yeast display titration).
With B1 the “apparent Kd” value was “inactive: no binding seen”. For B2, the “apparent Kd” value was “inactive: no binding seen”. B3 was tested, and the “apparent Kd” value was “inactive: no binding seen”. B4 was tested, and the “apparent Kd” value was “inactive: no binding seen”. With B5 the “apparent Kd” value was “inactive: no binding seen”. In the case of B6, the “apparent Kd” value is reported as “inactive: no binding seen”. For B7, the “apparent Kd” value was “inactive: no binding seen”. With B8 the “apparent Kd” value was “inactive: no binding seen”. In the case of B9, the “apparent Kd” value is reported as “inactive: no binding seen”. In the case of B10, the “apparent Kd” value is reported as “inactive: no binding seen”. For B11, the “apparent Kd” value was “inactive: no binding seen”. In the case of B12, the “apparent Kd” value is reported as “inactive: no binding seen”. With B13 the “apparent Kd” value was “inactive: no binding seen”. In the case of B14, the “apparent Kd” value is reported as “inactive: no binding seen”. B15 was tested, and the “apparent Kd” value was “inactive: no binding seen”. B16 was tested, and the “apparent Kd” value was “inactive: no binding seen”. With B17 the “apparent Kd” value was “inactive: no binding seen”. For B18, the “apparent Kd” value was “inactive: no binding seen”. With B19 the “apparent Kd” value was “inactive: no binding seen”. B20 was tested, and the “apparent Kd” value was “inactive: no binding seen”. For B21, the “apparent Kd” value was “inactive: no binding seen”. With B22 the “apparent Kd” value was “inactive: no binding seen”. With B23 the “apparent Kd” value was “inactive: no binding seen”. B24 was tested, and the “apparent Kd” value was “inactive: no binding seen”.
